PubChem BioAssay AID652243, Drosophila RNAi Screening Center, 2013
Test: 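Fly regulators of androgen-dependent reporter output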 (primary screen). Cells: Drosophila S2R+ cells. Knock-down reagent: long dsRNA against Drosophila genes. Duration: 72 h (48 h, then 24 h hormone). Treatment: synthetic androgen R1881 at 10 nM for 24 h. Detection: 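Per-well raw luminescence of the androgen-driven firefly reporter and of the Renilla control, two replicates each, without normalisation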. Reading the numbers: firefly reporter light: higher = more light from androgen-responsive reporter; Renilla control light: higher = more constitutive control signal (cell number, transfection). Rule for the call: 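Across duplicate plates, a knock-down whose log firefly/Renilla ratio shifted a set fold down or up from the GFP/LacZ control mean was a hit; the downward cut appears as both 1.5 and 3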. Meaning of the calls: active = hit: reporter lowered or raised; inactive = no hit.
The deposit covers about 24,000 reagents; below is a random part of those that have a named target and a result. Of all reagents, 246 (1%) got an active call. 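Plates not normalised; calls are printed but the firefly/Renilla ratio behind them is not deposited; fold cut for lowering reported inconsistently.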 The raw values are shown without normalisation. A plus sign joins genes that one reagent is predicted to hit. Not stated in the record: the amount of reagent.

| target | amplicon | firefly reporter light, replicate 1 | firefly reporter light, replicate 2 | Renilla control light, replicate 1 | Renilla control light, replicate 2 | outcome |
| --- | --- | --- | --- | --- | --- | --- |
| CG32305 (GeneID 317967) | DRSC08614 | 45431 | 74234 | 8.97e5 | 8.36e5 | inactive |
| CG32305 (GeneID 317967) | DRSC29854 | 6.13e5 | 4.25e5 | 1.53e6 | 1.54e6 | inactive |
| CR33315 (GeneID 3771801) | DRSC22947 | 2.51e5 | 9.49e5 | 6.99e5 | 2.11e6 | inactive |
| CR33315 (GeneID 3771801) | DRSC27669 | 2.07e5 | 1.92e5 | 4.06e5 | 7.79e5 | inactive |
| CG32365 (GeneID 38876) | DRSC10040 | 1.08e5 | 1.20e5 | 1.95e6 | 1.60e6 | inactive |
| verm (GeneID 40149) | DRSC11038 | 43296 | 31871 | 4.85e5 | 3.06e5 | inactive |
| verm (GeneID 40149) | DRSC24665 | 6.72e5 | 8.73e5 | 6.40e5 | 9.31e5 | inactive |
| Su(fu) (GeneID 41565) | DRSC16871 | 44415 | 63090 | 4.69e5 | 6.70e5 | inactive |
| CG33798 (GeneID 3772108) | DRSC37810 | 1.06e6 | 8.17e5 | 2.29e6 | 2.13e6 | inactive |
| wal (GeneID 36252) | DRSC07717 | 1.15e6 | 4.38e5 | 1.25e6 | 1.08e6 | inactive |
| wal (GeneID 36252) | DRSC26330 | 6.96e5 | 9.92e5 | 8.44e5 | 7.78e5 | inactive |
| rdgC (GeneID 40224) | DRSC11387 | 2.46e5 | 2.36e5 | 2.10e6 | 3.07e6 | active |
| rdgC (GeneID 40224) | DRSC36628 | – | – | – | – | inactive |
| rdgC (GeneID 40224) | DRSC36629 | – | – | – | – | inactive |
| CG14777 (GeneID 31099) | DRSC18563 | 3.02e5 | 2.63e5 | 4.93e6 | 3.65e6 | inactive |
| goe (GeneID 32660) | DRSC19345 | 5.16e5 | 3.49e5 | 3.71e6 | 2.91e6 | inactive |
| goe (GeneID 32660) | DRSC29879 | 5.47e5 | 5.27e5 | 1.21e6 | 1.24e6 | inactive |
| CG13685 (GeneID 38869) | DRSC10043 | 1.13e5 | 1.57e5 | 1.45e6 | 2.81e6 | inactive |
| CG13685 (GeneID 38869) | DRSC30064 | 8.44e5 | 7.64e5 | 1.09e6 | 9.14e5 | inactive |
| tobi (GeneID 43072) | DRSC14435 | 2.13e5 | 1.69e5 | 3.02e6 | 2.17e6 | inactive |
| RpL37-2 (GeneID 37669) | DRSC04584 | 2.55e5 | 2.68e5 | 1.96e6 | 1.72e6 | inactive |
| Unc-115b + p24-2 | DRSC16492 | 31272 | 1.00e5 | 3.87e5 | 8.35e5 | inactive |
| Cpr11A (GeneID 32198) | DRSC19861 | 4.31e5 | 5.09e5 | 3.59e6 | 3.79e6 | inactive |
| Cpr11A (GeneID 32198) | DRSC26786 | 3.25e5 | 2.79e5 | 4.14e5 | 3.54e5 | inactive |
| Sp212 (GeneID 2768666) | DRSC22930 | 4.24e5 | 1.13e6 | 1.09e6 | 1.65e6 | inactive |
| Sp212 (GeneID 2768666) | DRSC28291 | 4.88e5 | 5.29e5 | 1.15e6 | 1.19e6 | inactive |
| Tailor (GeneID 40847) | DRSC12526 | 46037 | 37533 | 1.39e6 | 8.87e5 | inactive |
| CG31189 (GeneID 42487) | DRSC16198 | 1.91e5 | 1.86e5 | 2.20e6 | 2.61e6 | inactive |
| Syp (GeneID 42460) | DRSC13444 | 1.90e5 | 72587 | 1.80e5 | 1.91e5 | inactive |
| Syp (GeneID 42460) | DRSC15286 | 83156 | 92048 | 6.11e5 | 6.31e5 | inactive |
| Syp (GeneID 42460) | DRSC29126 | 9.15e5 | 8.26e5 | 7.95e5 | 8.13e5 | inactive |
| mthl15 (GeneID 318914) | DRSC01120 | 1.98e5 | 2.17e5 | 4.62e5 | 4.77e5 | inactive |
| crm (GeneID 31268) | DRSC18754 | 6.05e5 | 5.71e5 | 2.01e6 | 1.57e6 | inactive |
| crm (GeneID 31268) | DRSC26508 | 3.28e5 | 2.58e5 | 3.88e5 | 4.38e5 | inactive |
| crm (GeneID 31268) | DRSC39136 | 6.50e5 | 7.51e5 | 1.18e6 | 8.86e5 | inactive |
| Coq7 (GeneID 44007) | DRSC29047 | 1.49e6 | 1.01e6 | 1.44e6 | 1.13e6 | inactive |
| CG33191 + Pif1B | DRSC12706 | 1.18e5 | 49764 | 1.72e5 | 1.38e5 | inactive |
| betaggt-I (GeneID 33704) | DRSC03494 | 1.53e5 | 1.43e5 | 1.57e6 | 8.68e5 | inactive |
| CG9386 (GeneID 41148) | DRSC16485 | 1.10e5 | 1.24e5 | 1.51e6 | 1.70e6 | inactive |
| CG4438 (GeneID 34257) | DRSC02746 | 1.09e5 | 80192 | 1.59e6 | 1.10e6 | inactive |
| CG4438 (GeneID 34257) | DRSC25747 | 1.02e6 | 1.06e6 | 1.23e6 | 1.13e6 | inactive |

Taken from above:
Value of Syp (GeneID 42460) [DRSC13444] under “outcome”: inactive
Result of rdgC (GeneID 40224) [DRSC36628] under “outcome”: inactive
goe (GeneID 32660) [DRSC19345], firefly reporter light, replicate 2 → 3.49e5
Under “Renilla control light, replicate 2”, CR33315 (GeneID 3771801) [DRSC27669] shows 7.79e5
verm (GeneID 40149) [DRSC24665], firefly reporter light, replicate 2: 8.73e5
crm (GeneID 31268) [DRSC39136], Renilla control light, replicate 2 → 8.86e5
